Results reported in PubChem BioAssay AID2685 (National Center for Advancing Translational Sciences (NCATS), 2010).
Some of the results follow. Shown are side measurements of this screen, not its main read-out; they come without a call. The list favours compounds with an active or inconclusive main result. Potencies come from curve fits of mixed quality, noted in brackets.

Test: qHTS Assay for Lipid Storage Modulators in Drosophila S3 Cells;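 on cell number change: cells counted by Cell Tracker Red CMTPX staining in the red channel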
Settings: BODIPY lipid droplet fluorescence, 18-24 h; for cell number change: measured here: cell count max response, cells fed with added oleic acid
In short: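 Laser-scanning cytometry quantifies lipid droplet accumulation (500–530 nm total intensity; droplet/cell object ratio) in oleic acid-fed (400 uM added) Drosophila S3 cells treated with a concentration series. 20 uM Triacsin C defined 100% inhibition.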

[1] = measured here: cell number channel AC50, cells fed with added oleic acid
[2] = measured here: lipid fluorescence (Fed channel) AC50, cells fed with added oleic acid

| SMILES | cell number change | AC50 [1] | AC50 [2] |
| --- | --- | --- | --- |
| Cn1c(C2CCCCC2)nc2c1c(=O)[nH]c(=O)n2Cc1ccccc1 | -32.5% | 0.184 µM [falling, full curve] | – |
| CSc1ccc(CN2CCSCC2)cc1 | -17.9% | – | 0.58 µM [rising, single point] |
| O=C1c2ccccc2C(Nc2ccc(-c3nc4ccccc4[nH]3)cc2)N1Cc1ccco1 (stereo unspecified) | -15.5% | – | – |
| CC1CCC(NC(=O)CN(C)S(=O)(=O)c2cnc[nH]2)CC1 (stereo unspecified) | 1.68% | 2.59 µM [falling, single point] | 2.59 µM [falling, single point] |
| Cc1c(N/N=C(\C#N)C(=O)c2ccc(Cl)cc2)c(=O)n(-c2ccccc2)n1C | 102% | 16.4 µM [rising, single point] | 29.1 µM [falling, single point] |
| Cc1nc(C2CC(=O)OC23CCCCC3)cs1 (stereo unspecified) | -0.414% | 0.103 µM [falling, full curve, poor fit] | 0.082 µM [falling, full curve, poor fit] |
| CCc1nnc(NC(=O)CSc2ncc(-c3ccccc3)n2CC)s1 | -17.7% | – | 2.31 µM [falling, single point] |
| O=C(c1ccc(S(=O)(=O)Nc2ccc(F)cc2)cc1)N1CCN(C(=O)c2ccco2)CC1 | -7.22% | – | – |
| CN1CCN(C(=O)/C(=C/c2cn(S(=O)(=O)N(C)C)c3ccccc23)NC(=O)c2ccccc2)CC1 | 33.6% | 0.731 µM [rising, full curve, poor fit] | 6.51 µM [rising, partial curve] |
| Cc1nc(C)c(-c2csc(Nc3ccc(N)cc3)n2)s1 | -42.9% | 29.1 µM [falling, partial curve, poor fit] | 25.9 µM [falling, partial curve, poor fit] |
| CC1=Nc2ccccc2/C1=C\c1nc(-c2ccc(C(F)(F)F)cc2)oc1O | 41.1% | 16.4 µM [rising, partial curve, poor fit] | 18.4 µM [falling, single point] |
| COc1ccc(S(=O)(=O)Nc2cccc(N(C)S(C)(=O)=O)c2)cc1C | -19.4% | – | 18.4 µM [falling, single point] |
| O=C(Cc1ccccc1)c1nnc(-c2ccccc2)o1 | 41% | – | – |
| CCC(C(=O)O)N1C(=O)c2ccccc2C1=O (stereo unspecified) | -35.3% | 1.46 µM [falling, full curve, poor fit] | 0.731 µM [falling, full curve, poor fit] |
| CCN1CCN(S(=O)(=O)c2ccc(S(=O)(=O)NCC3CCCO3)cc2)CC1 (stereo unspecified) | 0.811% | – | 9.2 µM [rising, partial curve] |
| Cc1oc(C)c(C(=O)NCCCC(=O)O)c1C(=O)NCCCC(=O)O | 16% | – | 25.9 µM [rising, single point] |
| CCOC(=O)c1c(C)[nH]c(C(=O)OCC(=O)N(C)CC(=O)Nc2ccccc2Cl)c1C | -26% | – | 13 µM [falling, partial curve, poor fit] |
| CN(Cc1nc(-c2ccncc2)no1)S(=O)(=O)c1ccc(Cl)cc1 | -14.1% | – | – |
| CCCCC1(Cc2ccc([N+](=O)[O-])cc2)C(=O)N(c2ccccc2)N(c2ccccc2)C1=O | -17.4% | – | 7.31 µM [falling, partial curve, poor fit] |
| CCOc1ccc(NC(=O)Nc2nc3ccc(S(C)(=O)=O)cc3s2)cc1 | – | 0.58 µM [rising, single point] | 29.1 µM [falling, single point] |

A second format for four compounds above.
Cc1nc(C)c(-c2csc(Nc3ccc(N)cc3)n2)s1
  cell number change: -42.9%
  AC50 [1]: 29.1 µM [falling, partial curve, poor fit]
  AC50 [2]: 25.9 µM [falling, partial curve, poor fit]
CC1=Nc2ccccc2/C1=C\c1nc(-c2ccc(C(F)(F)F)cc2)oc1O
  cell number change: 41.1%
  AC50 [1]: 16.4 µM [rising, partial curve, poor fit]
  AC50 [2]: 18.4 µM [falling, single point]
COc1ccc(S(=O)(=O)Nc2cccc(N(C)S(C)(=O)=O)c2)cc1C
  cell number change: -19.4%
  AC50 [2]: 18.4 µM [falling, single point]
O=C(Cc1ccccc1)c1nnc(-c2ccccc2)o1
  cell number change: 41%

Carrying on:

| SMILES | cell number change | AC50 [1] | AC50 [2] |
| --- | --- | --- | --- |
| C[C@@H](C(=O)NCc1ccc(S(C)(=O)=O)cc1)[C@@H]1C[C@@]1(C)[C@@H](NC(=O)OCc1ccccc1)c1ccccc1 | 15.8% | 0.58 µM [rising, partial curve, poor fit] | 0.731 µM [rising, single point] |
| COc1cc(NC(=O)c2onc(C)c2Cl)c(OC)cc1Cl | -35.2% | 16.4 µM [falling, single point] | – |
| Cc1ncoc1C(=O)N1CCCC(C(=O)c2cccc(OC(C)C)c2)C1 (stereo unspecified) | -40.5% | 14.6 µM [falling, partial curve] | 18.4 µM [falling, single point] |
| CCN(c1ccccc1)S(=O)(=O)c1ccc(C(=O)Nc2cc(C)ccn2)cc1 | -5.49% | – | 6.51 µM [falling, partial curve] |
| CC(C)NC(=O)C1CCN(C(=O)c2ccc(-c3ccccc3)cc2)CC1 | 1.28% | 0.0731 µM [falling, full curve, poor fit] | 23.1 µM [rising, single point] |
| C/C(=N/NS(=O)(=O)c1cc(C)ccc1C)c1c[nH]c2ccccc12 | -7.67% | – | – |
| Cc1c(Cl)cccc1NC(=O)c1cc(-c2ccccc2O)n[nH]1 | -3.73% | – | – |
| c1ccc2nc3c(nc2c1)CCc1nonc1-3 | -9.3% | 0.291 µM [rising, full curve, poor fit] | 29.1 µM [rising, single point] |
| Cc1cccc(Oc2ccccc2NS(=O)(=O)c2ccc(CCC(=O)O)cc2)c1 | 17.9% | 0.291 µM [rising, full curve, poor fit] | – |
| COc1ccc(CN(CCCN2CCOCC2)C(=O)Nc2ccccc2)cc1OC | -4.68% | – | – |
| C[N+]1(CC2COC3(CCCCC3)O2)CCCCC1 (stereo unspecified) | -20.6% | – | 5.8 µM [falling, full curve] |
| O=C(COc1ncnc2ccccc12)Nc1cccc([N+](=O)[O-])c1 | -8.8% | – | 3.66 µM [falling, single point] |
| O=C1CCC/C(=N/Nc2ccc(Cl)cc2)C1 | 8.91% | – | 0.651 µM [rising, full curve, poor fit] |
| CCOc1ccc(C(=O)NCc2ccccn2)cc1 | 10.8% | – | – |
| CCOc1ccccc1C(=O)NC(C(=O)Nc1ccccc1N1CCOCC1)C(C)C (stereo unspecified) | 13.6% | – | 2.91 µM [rising, partial curve] |
| CC(=O)c1ccc(N2CCN(C(=O)/C=C/c3ccc4ccccc4n3)CC2)cc1 | 110% | 25.9 µM [rising, single point] | 18.4 µM [rising, partial curve] |
| Cc1ccc(S(=O)(=O)N2CCOCC2)cc1C(=O)Nc1ccc2c(c1)OCCO2 | 4.1% | – | 0.116 µM [rising, full curve, poor fit] |
| COc1cc(/C=N/N2CCN(c3ccccc3OC)CC2)ccc1O | – | – | 3.66 µM [falling, partial curve] |
| O=C(O)C1CC=CCC1C(=O)Nc1cccc([N+](=O)[O-])c1 (stereo unspecified) | -0.187% | – | 1.16 µM [falling, single point] |
| CC(C)CNC(=O)c1cccc(NC(=O)C2CCCO2)c1 (stereo unspecified) | -5% | – | 0.82 µM [falling, single point] |

| SMILES | cell number change | AC50 [1] | AC50 [2] |
| --- | --- | --- | --- |
| O=c1[nH]c(CN2CCOCC2)nc2ccccc12 | -24.9% | – | 29.1 µM [falling, single point] |
| FC(F)Oc1ccc(NC(=S)N2CCN(Cc3ccccc3)CC2)cc1 | 5.35% | – | – |
| O=C(NNC(=O)C1CCN(S(=O)(=O)c2c(Cl)cccc2Cl)CC1)c1ccccc1O | -18% | – | – |
| CCOC(=O)c1cnc2c(cnn2C)c1NCCCn1ccnc1 | 11.4% | – | – |
| CCn1c(SC(C)C(=O)NCC2CCCO2)nc2ccccc21 (stereo unspecified) | -2.08% | – | 29.1 µM [rising, single point] |
| COc1ccc(-c2nc(SCC(=O)NCc3ccco3)c(-c3ccccc3)[nH]2)cc1OC | 49.7% | 1.46 µM [rising, partial curve] | 3.26 µM [rising, partial curve] |
| CCCCNC(=O)c1ccc2c(c1)N(C)C(=O)c1ccccc1S2 | 29.8% | – | – |
| CC1(C)NC(=O)N(CC(O)CN2CCOCC2)C1=O (stereo unspecified) | -24.8% | 0.58 µM [falling, full curve, poor fit] | 29.1 µM [falling, single point] |
| CCOC(=O)c1[nH]c(C)c(/C(O)=C2\C(=O)C(=O)N(CCN3CCOCC3)C2c2ccco2)c1C (stereo unspecified) | 121% | – | – |
| Cc1nn(-c2cccc(Cl)c2)c(Cl)c1/C=N/NC(=O)c1cccs1 | -51.5% | 5.17 µM [falling, partial curve] | 5.8 µM [falling, partial curve] |
| COc1cccc(N2CCN(CC(=O)Nc3nnc(-c4ccccc4)s3)CC2)c1 | -19.1% | – | – |
| O=C(Cc1ccccc1)NC(=S)Nc1ccc(OC(F)F)cc1 | -9.12% | – | 4.11 µM [rising, partial curve, poor fit] |
| COC(=O)C1=C(C)NC(=O)NC1c1ccc(-c2ccc(F)cc2)o1 (stereo unspecified) | -11.5% | – | 0.58 µM [falling, single point] |
| O=C(C1CCCO1)N1CCN(C(=S)Nc2ccc(Br)cc2)CC1 (stereo unspecified) | 3.81% | – | – |
| O=S(=O)(c1ccc(OCC(O)CN2CCN(c3ccccc3Cl)CC2)cc1)N1CCOCC1 (stereo unspecified) | -0.722% | – | – |
| CC1=C(C(=O)OCc2ccccc2)C(c2cccnc2)n2nnnc2N1 (stereo unspecified) | -23.9% | – | 29.1 µM [falling, single point] |
| CCOc1ccc(C2C(C#N)=C(N)Oc3cc(C)n(CCN(C)C)c(=O)c32)cc1OCC (stereo unspecified) | 26.8% | – | 6.51 µM [falling, single point] |
| CCOC(=O)N1CCN(C(=O)c2cn(C)c3ccc(S(=O)(=O)N(C)C4CCCCC4)cc3c2=O)CC1 | -15% | – | 25.9 µM [rising, single point] |
| CC(NC(=O)c1cccnc1)C(c1cccs1)N1CCN(c2ccccc2F)CC1 (stereo unspecified) | -7.98% | – | 3.26 µM [falling, full curve] |
